# In PubChem BioAssay AID1919003 (Molecular Pharmacology Branch, DTP, NCI, 2023):
# Several values for one entry are separate records, joined by “and”; a condition that tells them apart may be missing. Identical values can stand only once. The source gives many values for each of these; only a part stands here.
# Test system: 786-0 complex spheroids with HUVEC/MSC, growth % test/control
# Experiment: Anticancer human tumor 786-0 cell line growth inhibition [AhR];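 note: compound exposure lasted seven days before the read-out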
# Conditions: stronger effect = lower value
# Source text: Multicellular complex tumor spheroid response to aryl hydrocarbon receptor antagonists in combination with a variety of drugs and investigational agents in selected tumor cell lines
# The current study was undertaken to assess response to aryl hydrocarbon receptor antagonists in combination with standard-of-care drugs and investigational agents in solid tumor complex spheroid models. Complex spheroids include a stromal component modeled by human endothelial cells (HUVEC) and fibroblasts modeled by human mesenchymal stem cells (MSCs). The concentration ranges selected for each drug and investigational agent were based upon clinically achievable concentrations if the clinical Cmax of the agent was known.
# Compounds. The drugs and investigational agents: BAY 2416964 (NSC825713), GNF351 (NSC835774), CH-223191 (NSC835775), CPI-455 (NSC825282), aza-TdCyd (NSC777586), decitabine (NSC127716), belinostat (NSC758774), entinostat (NSC756642), pevonedistat (NSC761192), tazemetostat (NSC777109), talazoparib (NSC765396), olaparib (NSC753686), selinexor (NSC780203), nedisertib (M3814, NSC802822), bortezomib (NSC756655), venetoclax (NSC766270), doxorubicin (NSC123127), elimusertib (BAY189344, NSC800525), ceralasertib (AZD6738, NSC777638), TAK-243 (NSC785004), alisertib (NSC759677), etoposide (NSC141540), topotecan (NSC609699), eribulin (NSC707389), gemcitabine (NSC613327), carboplatin (NSC241240), cisplatin (NSC119875), and SN-38 (NSC673596) were obtained from the National Cancer Institute (NCI) Developmental Therapeutics Program Chemical Repository (32). The FDA-approved anticancer drug set is available from the Developmental Therapeutics Program at https://dtp.cancer.gov/organization/dscb/obtaining/available plates.htm. […] The stock solutions were prepared in dimethyl sulfoxide (DMSO, Sigma-Aldrich, St. Louis, MO, cat. D2650), except for the platinum compounds which were prepared in saline (Quality Biological, Gaithersburg, MD, cat. 114-055-101), at 800-fold the tested concentration and stored at -70 degrees C prior to their use. All drugs and investigational agents were tested over a range starting from a high concentration at or near the clinical Cmax and decreasing in half-log increments. If the clinical Cmax for an agent had not been determined, the highest concentration tested was 10 microM (Table 1).
# Cell Culture. All cells were maintained in an incubator at 37 degrees C and 5% CO2 with 95% humidity. The PDC lines were cultured according to standard operating procedures established by the NCI PDMR (https://pdmr.cancer.gov). Briefly, all PDCs were thawed and cultured in Matrigel-coated flasks prepared with a working solution of 1X Ham's F-12 nutrient mix, without supplementation (Invitrogen, Waltham, MA, cat. 11765054), 100 U/mL penicillin-streptomycin (Invitrogen, cat. 15140122), and 2.5% Matrigel (Corning Inc., Corning, NY, cat. 354248) for the first three passages. All PDCs were cultured in complete DMEM/F-12 media containing advanced DMEM/F-12 (Invitrogen, cat. 12634028), 4.9% defined fetal bovine serum, heat inactivated (HyClone Laboratories Inc., Logan, UT, cat. SH30070.03HI), 389 ng/mL hydrocortisone (Sigma-Aldrich, cat. H4001), 9.7 ng/mL human EGF recombinant protein (Invitrogen, cat. PHG0313), 23.4 microg/mL adenine (Sigma-Aldrich, cat. A2786), 97.3 U/mL penicillin-streptomycin (Invitrogen, cat. 15140122), 1.9 mM L-glutamine (Invitrogen, cat. 25030081), and 9.7 microM Y-27632 dihydrochloride (Tocris Bioscience, Bristol, United Kingdom, cat. 1254). The PDCs were cultured in complete DMEM/F12 media without 10 microM Y-27632 dihydrochloride for at least two passages prior to the screen. The established cell lines NCI-H1341 and […] were cultured in DMEM/F-12, HEPES (Invitrogen, cat. 11330032), 5% defined fetal bovine serum (HyClone Laboratories Inc., cat. SH30070.03), ITS premix universal culture supplement [insulin (5 microg/mL), transferrin (5 microg/mL), and selenious acid (5 ng/mL)] […]
SMILES,"viability, T/C (compound 0.1 µM)","viability, T/C (compound 0.316 µM)","viability, T/C (compound 1 µM)","viability, T/C (compound 10 µM)","viability, T/C (compound 3.16 µM)"
Cc1cncc(-c2nc(NCCc3c[nH]c4ccccc34)c3ncn(C(C)C)c3n2)c1,112%,112% (2×) and 105% (2×),118% and 109% (2×) and 95.9%,9.97% [middle of 5 runs],–
Cc1ccccc1N=Nc1ccc(NC(=O)c2ccnn2C)c(C)c1,92.6% and 89.9%,96.3% [middle of 5 runs],92% [middle of 5 runs],86% and 94.9% and 84.6%,91% [middle of 4 runs]
CC(CO)NC(=O)c1cc(-c2ccc(Cl)cc2)nn(-c2cnn(C)c2)c1=O (stereo not drawn),97.7% and 92.3% and 112%,91% and 97% and 98.7%,98.8% and 96.1% and 107%,–,97.8% and 101% and 95.3%
